Data as given in PubChem BioAssay AID1508597 (Cure First, 2020).

Aim: 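Knock-downs altering ovarian cancer cell survival with or without PARP inhibitor rucaparib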 (primary screen)
System: human ovarian carcinoma lines grown from tumours: OCI-P5x (papillary serous) and OCI-C5x (clear cell)
Reagents: siRNA pool against human genes, 1.25 pmol siRNA per well
Timing: 72 h or 96 h, depending on the cell culture
Treatment: rucaparib 20 µM (about IC30) or vehicle, present until read-out
Rucaparib or vehicle: Vehicle
Cell line: OCI-C5x (clear cell)
Measurement: 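Luminescent ATP-based viability assay read 72 or 96 h after transfection, depending on culture, given as normalised percent viability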
Reading the numbers: viability, normalised: higher = more viable cells remaining
Hit rule: 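Active when normalised viability falls below 80 percent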
Meaning of the calls: active = viability under 80%; inactive = viability 80% or more
Shown is an unselected part of the about 2,100 reagents, under one of the conditions tested. 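Calls flag viability under 80% in either arm, not effects specific to rucaparib; the reference for percent is not stated.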 The record does not give: the 100% reference.

target	technical replicate	viability, normalised (%)	Call
TNIK (TRAF2 and NCK interacting kinase)	1	45.4	active
TNIK (TRAF2 and NCK interacting kinase)	2	45.9	active
TNIK (TRAF2 and NCK interacting kinase)	3	42.9	active
SPHK2 (sphingosine kinase 2)	1	42.3	active
SPHK2 (sphingosine kinase 2)	2	37.9	active
SPHK2 (sphingosine kinase 2)	3	25.8	active
CPS1 (carbamoyl-phosphate synthase 1)	1	59.3	active
CPS1 (carbamoyl-phosphate synthase 1)	2	58.1	active
CPS1 (carbamoyl-phosphate synthase 1)	3	50.5	active
PHF21B (PHD finger protein 21B)	1	37.7	active
PHF21B (PHD finger protein 21B)	2	43.6	active
PHF21B (PHD finger protein 21B)	3	56.8	active
PFKFB2 (6-phosphofructo-2-kinase/fructose-2,6-biphosphatase 2)	1	38.7	active
PFKFB2 (6-phosphofructo-2-kinase/fructose-2,6-biphosphatase 2)	2	44.6	active
PFKFB2 (6-phosphofructo-2-kinase/fructose-2,6-biphosphatase 2)	3	57.8	active
SMCHD1	1	68.6	active
SMCHD1	2	41.2	active
SMCHD1	3	56.5	active
GTF2H5 (general transcription factor IIH subunit 5)	1	53.4	active
GTF2H5 (general transcription factor IIH subunit 5)	2	50.3	active
GTF2H5 (general transcription factor IIH subunit 5)	3	44.1	active
L3MBTL3 (L3MBTL histone methyl-lysine binding protein 3)	1	39.5	active
L3MBTL3 (L3MBTL histone methyl-lysine binding protein 3)	2	76.2	active
L3MBTL3 (L3MBTL histone methyl-lysine binding protein 3)	3	39.5	active
ACHE (acetylcholinesterase (Yt blood group))	1	39.5	active
ACHE (acetylcholinesterase (Yt blood group))	2	35.3	active
ACHE (acetylcholinesterase (Yt blood group))	3	50	active
TXNDC9 (thioredoxin domain containing 9)	1	42.7	active
TXNDC9 (thioredoxin domain containing 9)	2	67	active
TXNDC9 (thioredoxin domain containing 9)	3	58.3	active
SLK (STE20 like kinase)	1	60.4	active
SLK (STE20 like kinase)	2	47.2	active
SLK (STE20 like kinase)	3	43.5	active
ITGB5 (integrin subunit beta 5)	1	37.2	active
ITGB5 (integrin subunit beta 5)	2	28.7	active
ITGB5 (integrin subunit beta 5)	3	27.6	active
NR4A2 (nuclear receptor subfamily 4 group A member 2)	1	24.7	active
NR4A2 (nuclear receptor subfamily 4 group A member 2)	2	34	active
NR4A2 (nuclear receptor subfamily 4 group A member 2)	3	40.9	active
SIRT5 (sirtuin 5)	1	28.5	active
SIRT5 (sirtuin 5)	2	59.3	active
SIRT5 (sirtuin 5)	3	53.4	active
ACTL6B (actin like 6B)	1	50.3	active
ACTL6B (actin like 6B)	2	38.7	active
ACTL6B (actin like 6B)	3	46.1	active
POLL (DNA polymerase lambda)	1	57.2	active
POLL (DNA polymerase lambda)	2	57.4	active
POLL (DNA polymerase lambda)	3	47.1	active
BBS7 (Bardet-Biedl syndrome 7)	1	29.4	active
BBS7 (Bardet-Biedl syndrome 7)	2	48.9	active
BBS7 (Bardet-Biedl syndrome 7)	3	51.8	active
TYK2 (tyrosine kinase 2)	1	71.4	active
TYK2 (tyrosine kinase 2)	2	62.1	active
TYK2 (tyrosine kinase 2)	3	87.3	inactive
ACTR5 (actin related protein 5)	1	45.4	active
ACTR5 (actin related protein 5)	2	40	active
ACTR5 (actin related protein 5)	3	30.9	active
